Some of the results follow. Single values are uncertain, as repeats are few or missing.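 Imaging used 1,536-well plates; nuclei positive for cleaved PARP by antibody were divided by total DNA-stained nuclei to yield the apoptosis fraction. Doses for screening kept most cells viable, and cell lines differ markedly in resting and induced cleaved-PARP levels.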
Assays:
Experiment in all cases: cleaved PARP positive nuclei fraction relative to DMSO control; melanoma cells; higher = more apoptosis
Settings in all cases: library dose: low library concentration; 72 h
MZ2-MEL = test system: MZ2-MEL
MeWo = test system: MeWo
RPMI7951 = test system: RPMI7951
RVH-421 = test system: RVH-421
SkMel28 = test system: SkMel28
SkMel30 = test system: SkMel30
SkMel5 = test system: SkMel5
UACC257 = test system: UACC257
UACC62 = test system: UACC62
SkMel2 = test system: SkMel2

SMILES | cleaved PARP positive nuclei fraction (MZ2-MEL) [%] | cleaved PARP positive nuclei fraction (MeWo) [%] | cleaved PARP positive nuclei fraction (RPMI7951) [%] | cleaved PARP positive nuclei fraction (RVH-421) [%] | cleaved PARP positive nuclei fraction (SkMel28) [%] | cleaved PARP positive nuclei fraction (SkMel30) [%] | cleaved PARP positive nuclei fraction (SkMel5) [%] | cleaved PARP positive nuclei fraction (UACC257) [%] | cleaved PARP positive nuclei fraction (UACC62) [%] | cleaved PARP positive nuclei fraction (SkMel2) [%]
O=C(Oc1ccc([N+](=O)[O-])cc1)N1CCC(C(O)(c2ccc3c(c2)OCO3)c2ccc3c(c2)OCO3)CC1 + CCCCCCCCCCCC1=C(O)C(=O)C=C(O)C1=O [Embelin] (first compound 1 µM, partner dose 1.2 µM) | 87.4 | 28.9 | 160 | 24.9 | 85.1 | 50.3 | 179 | 72.5 | 105 | 
Cn1cc(C2=C(c3cn(C4CCN(Cc5ccccn5)CC4)c4ccccc34)C(=O)NC2=O)c2ccccc21 [Enzastaurin] + C#Cc1cccc(Nc2ncnc3cc(OCCOC)c(OCCOC)cc23)c1 [erlotinib] (first compound 0.8 µM, partner dose 0.8 µM) | 63.6 | 29.6 | 111 | 150 | 175 | 71.8 |  |  | 102 | 103
CN(NC(=O)CC(=O)NN(C)C(=S)c1ccccc1)C(=S)c1ccccc1 + C/C(O)=C(\C#N)C(=O)Nc1cc(Br)ccc1Br [LFM-A13] (first compound 0.006 µM, partner dose 2 µM) | 118 | 62.7 | 213 | 106 | 144 | 10.9 | 117 | 152 | 54.5 | 
O=C(/C=C/c1cccnc1)NCCCCC1CCN(C(=O)c2ccccc2)CC1 + Cn1cc(C2=C(c3cn(C4CCN(Cc5ccccn5)CC4)c4ccccc34)C(=O)NC2=O)c2ccccc21 [Enzastaurin] (first compound 0.01 µM, partner dose 0.8 µM) | 110 | 120 | 53.5 | 243 | 84.4 | 50.2 |  |  | 37.2 | 2040

From the supplement of paper PMC4604168 (melanoma cell lines)
